These are yes or no findings as the source states them, for the method shown. Binding seen in cells or lysates may run through a third protein. Some binding calls cover weakened binding; strength is not graded here. Where a sequence is shown, tags or fusion partners need not be part of it.

Assay [1] has as its target T1, nYFP-UDT1 (UNDEVELOPED TAPETUM1 fused with the N-terminal split of YFP) (rice (japonica cv. Nipponbare)) (UniProt B9FXT3).
T1 sequence: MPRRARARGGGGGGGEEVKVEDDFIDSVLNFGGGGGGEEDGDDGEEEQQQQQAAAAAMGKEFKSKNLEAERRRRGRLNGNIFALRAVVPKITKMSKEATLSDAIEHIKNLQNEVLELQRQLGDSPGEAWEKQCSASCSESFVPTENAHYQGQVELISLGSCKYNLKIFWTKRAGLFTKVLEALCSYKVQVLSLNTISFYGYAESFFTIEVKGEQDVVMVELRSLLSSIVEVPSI
Description: split reporter; BiFC in rice protoplasts; pairs of split YFP (nYFP/cYFP) fusions cotransfected with the nuclear marker H2B-tagRFP; confocal images under identical conditions, compared with negative controls.

For assay [2], the target named is T2, UDT1-nYFP (UNDEVELOPED TAPETUM1 fused with the N-terminal split of YFP) (rice (japonica cv. Nipponbare)) (UniProt B9FXT3).
T2 sequence: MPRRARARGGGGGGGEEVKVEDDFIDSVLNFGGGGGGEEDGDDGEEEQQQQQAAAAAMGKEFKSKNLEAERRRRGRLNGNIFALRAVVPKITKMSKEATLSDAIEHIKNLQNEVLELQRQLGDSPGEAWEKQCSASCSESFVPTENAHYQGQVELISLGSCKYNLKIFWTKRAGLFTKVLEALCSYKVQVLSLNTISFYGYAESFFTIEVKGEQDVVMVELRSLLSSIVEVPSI
The assay is described as above.

B1: TIP2-cYFP (TDR … PROTEIN2 fused with the C-terminal split of YFP) (protein, UniProt Q5JNS0 1-379)
chain: MYHPQCELLMPLESLEMDVGQSHLAAAVAAAMPGELNFHLLHSLDAAAAAASSTAASASSQPTVDYFFGGADQQPPPPAAMQYDQLAAPHHHQTVAMLRDYYGGHYPPAAAAAAATEAYFRGGPRTAGSSSLVFGPADDESAFMVGPFESSPTPRSGGGRKRSRATAGFHGGGPANGVEKKEKQRRLRLTEKYNALMLLIPNRTKEDRATVISDAIEYIQELGRTVEELTLLVEKKRRRREMQGDVVDAATSSVVAGMDQAAESSEGEVMAAAAMGAVAPPPRQAPIRSTYIQRRSKETFVDVRIVEDDVNIKLTKRRRDGCLAAASRALDDLRLDLVHLSGGKIGDCHIYMFNTKIHSGSPVFASAVASRLIEVVDEY
For the molecule B1, the binding result in assay [1] and in assay [2] was “binds” each time.

B2: cYFP-TIP2 (TDR … PROTEIN2 fused with the C-terminal split of YFP) (protein, UniProt Q5JNS0 1-379)
chain: MYHPQCELLMPLESLEMDVGQSHLAAAVAAAMPGELNFHLLHSLDAAAAAASSTAASASSQPTVDYFFGGADQQPPPPAAMQYDQLAAPHHHQTVAMLRDYYGGHYPPAAAAAAATEAYFRGGPRTAGSSSLVFGPADDESAFMVGPFESSPTPRSGGGRKRSRATAGFHGGGPANGVEKKEKQRRLRLTEKYNALMLLIPNRTKEDRATVISDAIEYIQELGRTVEELTLLVEKKRRRREMQGDVVDAATSSVVAGMDQAAESSEGEVMAAAAMGAVAPPPRQAPIRSTYIQRRSKETFVDVRIVEDDVNIKLTKRRRDGCLAAASRALDDLRLDLVHLSGGKIGDCHIYMFNTKIHSGSPVFASAVASRLIEVVDEY
For B2, the binding result in assay [1] and in assay [2] was “binds” in each case.

B3: EAT1-cYFP (ETERNAL TAPETUM1 fused with the C-terminal split of YFP) (natural protein, rice (japonica cv. Nipponbare), UniProt Q7X8R0 1-464, looked up)
chain: MIVGAGYFEDSHDQSLMAGSLIHDSNQAPASSENTSIDLQKFKVHPYSTEALSNTANLAEAARAINHLQHQLEIDLEQEVPPVETANWDPAICTIPDHIINHQFSEDPQNILVEQQIQQYDSALYPNGVYTPAPDLLNLMQCTMAPAFPATTSVFGDTTLNGTNYLDLNGELTGVAAVPDSGSGLMFASDSALQLGYHGTQSHLIKDICHSLPQNYGLFPSEDERDVIIGVGSGDLFQEIDDRQFDSVLECRRGKGEFGKGKGKANFATERERREQLNVKFRTLRMLFPNPTKNDRASIVGDAIEYIDELNRTVKELKILVEQKRHGNNRRKVLKLDQEAAADGESSSMRPVRDDQDNQLHGAIRSSWVQRRSKECHVDVRIVDDEVNIKLTEKKKANSLLHAAKVLDEFQLELIHVVGGIIGDHHIFMFNTKVSEGSAVYACAVAKKLLQAVDVQHQALDIFN
As to B3, the binding entry in assay [1] and in assay [2] was “binds” in each case.

B4: cYFP-EAT1 (ETERNAL TAPETUM1 fused with the C-terminal split of YFP) (protein, UniProt Q7X8R0 1-464)
chain: MIVGAGYFEDSHDQSLMAGSLIHDSNQAPASSENTSIDLQKFKVHPYSTEALSNTANLAEAARAINHLQHQLEIDLEQEVPPVETANWDPAICTIPDHIINHQFSEDPQNILVEQQIQQYDSALYPNGVYTPAPDLLNLMQCTMAPAFPATTSVFGDTTLNGTNYLDLNGELTGVAAVPDSGSGLMFASDSALQLGYHGTQSHLIKDICHSLPQNYGLFPSEDERDVIIGVGSGDLFQEIDDRQFDSVLECRRGKGEFGKGKGKANFATERERREQLNVKFRTLRMLFPNPTKNDRASIVGDAIEYIDELNRTVKELKILVEQKRHGNNRRKVLKLDQEAAADGESSSMRPVRDDQDNQLHGAIRSSWVQRRSKECHVDVRIVDDEVNIKLTEKKKANSLLHAAKVLDEFQLELIHVVGGIIGDHHIFMFNTKVSEGSAVYACAVAKKLLQAVDVQHQALDIFN
As to B4, the binding result in assay [1] and in assay [2] was “binds” in each case.

The values above are taken from article PMC5825165, “EAT1 transcription factor, a non-cell-autonomous regulator of pollen production, activates meiotic small RNA biogenesis in rice anther tapetum” (PLoS Genetics, 2018).
